For at least one compound, name, drawing or mass did not settle the structure. Square brackets hold non-standard residues; d marks the D form. Peptide text beside a SMILES is read from it.
Target: human CXCR4 (Homo sapiens, UniProt P61073)
Experiment: IC50 for inhibition of CXCR4 activation, β-Arrestin recruitment (Example 22)
Assay type: cell-based
Set-up: host or cells: C2C12 (mouse myoblast) CXCR4 β-Arrestin PathHunter cell line
Conditions: 7 nM CXCL12 (EC80), stock in H2O, range 1 μM-0.05 nM
Method: The assay was run with the DiscoverX protocol. β-Arrestin recruitment assays were performed by Eurofins-DiscoverX (Fremont, Calif.) using C2C12 CXCR4 β-Arrestin cell line (co-expressing ProLink tagged human CXCR4 and Enzyme Acceptor tagged β-Arrestin) and PathHunter detection kit. Peptides were initially prepared as 1 mM stock in H2O and tested in ten (10)-step concentration response curves using 3-fold dilution steps with 1 μM as highest concentration; a concentration range of 1 μM-0.05 nM was tested. C2C12 CXCR4 β-Arrestin cells were seed onto 384-well plates in standard medium. […] At the end of the 90 min incubation period, β-Arrestin recruitment in response to various treatments was quantified using a chemiluminescent complementation reporter assay to measure association of tagged human […] (ProLink tag) and tagged β-Arrestin (Enzyme Acceptor tag).

Protein sequences, listed by entry. Tags and fused reporters are not part of them.
UniProt P61073, whole entry: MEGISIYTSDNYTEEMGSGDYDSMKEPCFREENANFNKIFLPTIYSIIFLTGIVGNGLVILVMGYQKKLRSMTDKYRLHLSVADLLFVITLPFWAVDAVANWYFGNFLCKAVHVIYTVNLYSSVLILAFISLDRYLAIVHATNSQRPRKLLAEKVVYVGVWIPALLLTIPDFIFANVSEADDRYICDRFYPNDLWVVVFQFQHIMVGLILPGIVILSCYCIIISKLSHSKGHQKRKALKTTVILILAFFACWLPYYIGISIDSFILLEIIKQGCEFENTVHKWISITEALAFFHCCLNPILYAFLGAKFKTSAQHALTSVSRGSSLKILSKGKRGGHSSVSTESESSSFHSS

| Structure (SMILES) | IC50 [µM] |
| --- | --- |
| CC(C)C[C@H](NC(=O)[C@H](CO)NC(=O)[C@H](CO)NC(=O)[C@H](CCCNC(=N)N)NC(=O)[C@@H](NC(=O)[C@H](CO)NC(=O)[C@H](Cc1c[nH]cn1)NC(=O)[C@H](Cc1c[nH]cn1)NC(=O)[C@@H](N)Cc1ccc(O)cc1)C(C)C)C(=O)N[C@@H](CCCNC(=N)N)C(=O)N1CCC[C@H]1C(=O)N[C@@H](Cc1ccc(O)cc1)C(=O)N[C@H](C(=O)N[C@@H](CCCCN)C(=O)O)[C@@H](C)O [compound 12] (H-YHHSVRSSLRPYTK-OH; N-terminus and C-terminus assumed) | > 1 |
| CC(C)C[C@H](NC(=O)[C@H](CO)NC(=O)[C@H](CO)NC(=O)[C@H](CCCNC(=N)N)NC(=O)[C@@H](NC(=O)[C@H](CO)NC(=O)[C@H](Cc1c[nH]cn1)NC(=O)[C@@H](N)Cc1c[nH]cn1)C(C)C)C(=O)N[C@@H](CCCNC(=N)N)C(=O)N1CCC[C@H]1C(=O)N[C@@H](Cc1ccc(O)cc1)C(=O)N[C@H](C(=O)N[C@@H](CCCCN)C(=O)O)[C@@H](C)O [compound 13] (H-HHSVRSSLRPYTK-OH; N-terminus and C-terminus assumed) | > 1 |
| CC(C)C[C@H](NC(=O)[C@H](CO)NC(=O)[C@H](CO)NC(=O)[C@H](CCCNC(=N)N)NC(=O)[C@@H](NC(=O)[C@@H](N)CO)C(C)C)C(=O)N[C@@H](CCCNC(=N)N)C(=O)N1CCC[C@H]1C(=O)N[C@@H](Cc1ccc(O)cc1)C(=O)N[C@H](C(=O)N[C@@H](CCCCN)C(=O)O)[C@@H](C)O [compound 15] (H-SVRSSLRPYTK-OH; N-terminus and C-terminus assumed) | > 1 |
| CC(C)C[C@H](NC(=O)[C@H](CO)NC(=O)[C@H](CO)NC(=O)[C@H](CCCNC(=N)N)NC(=O)[C@@H](NC(=O)[C@H](CO)NC(=O)[C@H](Cc1c[nH]cn1)NC(=O)[C@H](Cc1c[nH]cn1)NC(=O)[C@H](Cc1ccc(O)cc1)NC(=O)[C@H](CCC(=O)O)NC(=O)[C@H](CCCNC(=N)N)NC(=O)[C@@H](N)CC(C)C)C(C)C)C(=O)N[C@@H](CCCNC(=N)N)C(=O)N1CCC[C@H]1C(=O)N[C@@H](Cc1ccc(O)cc1)C(=O)N[C@H](C(=O)N[C@@H](CCCCN)C(=O)O)[C@@H](C)O [compound 31] (H-LREYHHSVRSSLRPYTK-OH; N-terminus and C-terminus assumed) | > 1 |
| CC(C)C[C@H](NC(=O)[C@H](CO)NC(=O)[C@H](CO)NC(=O)[C@H](CCCNC(=N)N)NC(=O)[C@@H](C)NC(=O)[C@H](CO)NC(=O)[C@H](Cc1c[nH]cn1)NC(=O)[C@H](Cc1c[nH]cn1)NC(=O)[C@H](Cc1ccc(O)cc1)NC(=O)[C@H](CCC(=O)O)NC(=O)[C@H](CCCNC(=N)N)NC(=O)[C@@H](N)CC(C)C)C(=O)N[C@@H](CCCNC(=N)N)C(=O)N1CCC[C@H]1C(=O)N[C@@H](Cc1ccc(O)cc1)C(=O)N[C@H](C(=O)N[C@@H](CCCCN)C(=O)O)[C@@H](C)O [compound 32] (H-LREYHHS[dA]RSSLRPYTK-OH; N-terminus and C-terminus assumed) | > 1 |
| CC(C)C[C@H](NC(=O)[C@H](CO)NC(=O)[C@H](CO)NC(=O)[C@H](CCCNC(=N)N)NC(=O)[C@@H](C)NC(=O)[C@H](CO)NC(=O)[C@H](Cc1c[nH]cn1)NC(=O)[C@H](Cc1c[nH]cn1)NC(=O)[C@H](Cc1ccc(O)cc1)NC(=O)[C@H](CC(=O)O)NC(=O)[C@H](CCCNC(=N)N)NC(=O)[C@@H](N)CC(C)C)C(=O)N[C@@H](CCCNC(=N)N)C(=O)N1CCC[C@H]1C(=O)N[C@@H](Cc1ccc(O)cc1)C(=O)N[C@H](C(=O)N[C@@H](CCCCN)C(=O)O)[C@@H](C)O [compound 37] (H-LRDYHHS[dA]RSSLRPYTK-OH; N-terminus and C-terminus assumed) | > 1 |

Reference: US20220395553A1, “CXCR4 ANTAGONIST PEPTIDES” (COHBAR, INC., priority 2019, published 2022)
